For test [1], the system named is SARS-CoV-2 -1 PRF reporter mCherry-FSE-GFP(-1). In words: mCherry (red) intensity as percent of control; higher = higher upstream reporter expression. Conditions: 10 µM; 24 h; HEK293T.
The test system is the same in test [2]. As to the kind of experiment: percent effect, decrease of GFP/mCherry ratio (-1 PRF reporter) relative to controls; higher = stronger frameshift inhibition. The note with it: 10 µM; 24 h; HEK293T.

Molecules are shown by their SMILES. Values joined by “and” are separate entries in the source; they are usually repeats but may differ in a detail not shown here. Equal entries are not always repeated. Structures can show the parent of a compound that is named as a salt. This is one part of the list. Repeats in this data set agree poorly, so a single value says little.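 HEK293T cells were given each compound shortly before transfection with a reporter in which red mCherry is followed by the SARS-CoV-2 frameshift element and then GFP in the −1 frame, so GFP appears only after frameshifting.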

Consider `Cc1c(OCC(F)(F)F)ccnc1C[S+]([O-])c1nc2ccccc2[nH]1` (centres undefined) [lansoprazole], for which, in test [1], the mCherry was found to be 141%. Also, the percent effect in test [2] was found to be 3.76%.

In the case of `CN1CCN(CCC(=O)N2c3ccccc3Sc3ccc(C(F)(F)F)cc32)CC1` [ftormetazine], the mCherry in test [1] was determined as 17%. In addition, the percent effect in test [2] is -6.78%.

For `C=CCNc1nc(NCC=C)nc(N2CCN(C(c3ccc(F)cc3)c3ccc(F)cc3)CC2)n1` [almitrine], in test [1], the mCherry worked out at 99.7%. In test [2], the percent effect was -7.45%.

`CC[C@H]1OC(=O)[C@H](C)C(=O)[C@H](C)[C@@H](O[C@@H]2O[C@H](C)C[C@H](N(C)C)[C@H]2O)[C@](C)(OC)C[C@@H](C)C(=O)[C@H](C)[C@H]2N(CCCCn3cnc(-c4cccnc4)c3)C(=O)O[C@]12C` gave a mCherry in test [1] of 119%. Further, the percent effect in test [2] is -0.48%.

The molecule `Cc1ccc(S(=O)(=O)NC(=O)NC2CCCCC2)cc1` [glycyclamide] registered a mCherry in test [1] of 102%. Also, the percent effect in test [2] is -6.75%.

As for `COc1ccc(/C=N/NC(=O)c2ccncc2)cc1OC` [verazide], the mCherry in test [1] is 74.3%. Moreover, the percent effect in test [2] is -11.6%.

`Cc1sc[n+](CC(=O)c2ccccc2)c1C` [alagebrium chloride] gave a mCherry in test [1] of 103%. For the same molecule, in test [2], the percent effect is -1.28%.

In test [1], `OCC(CO)N[C@H]1C[C@](O)(CO)[C@@H](O)[C@H](O)[C@H]1O` [voglibose] displayed a mCherry of 110%. Also, the percent effect in test [2] was -2.73%.

`CCCCCCCCCCCCCCOS(=O)(=O)O` [Sodium Tetradecyl Sulfate] displayed a mCherry in test [1] of 103%. For the same molecule, the percent effect in test [2] was -4.39%.

With `CN(C)[C@@H]1C(=O)C(C(=O)NCNCCCC[C@H](N)C(=O)O)=C(O)[C@@]2(O)C(=O)C3=C(O)c4c(O)cccc4[C@@](C)(O)[C@H]3C[C@@H]12` [lymecycline], the mCherry in test [1] turned out to be 131%. For the same molecule, the percent effect in test [2] is -4.64%.

In test [1], `N[C@@H](Cc1ccc(O)cc1)C(=O)O` [tyrosine] registered a mCherry of 96.1%. Also, the percent effect in test [2] is -0.728%.

As for `CSc1ccc(OCc2ncc([N+](=O)[O-])n2C)cc1` [fexinidazole], in test [1], the mCherry is 110%. Besides, in test [2], the percent effect was -3.98%.

The molecule `COc1ccc2c(c1OC)C(=O)O[C@@H]2[C@H]1c2c(cc3c(c2OC)OCO3)CCN1C` [noscapine] gave a mCherry in test [1] of 95.1%. In test [2], the percent effect was -3.87%.

In turn, `CCCCc1nc(Cl)c(CO)n1Cc1ccc(-c2ccccc2-c2nnn[nH]2)cc1` [Cozaar] showed a mCherry in test [1] of 117%. In addition, the percent effect in test [2] is -0.781%.

`CCCCC(CC)COc1ccc(-c2nc(-c3ccc(OC)cc3)nc(-c3ccc(OCC(CC)CCCC)cc3O)n2)c(O)c1` (centres undefined) [bemotrizinol] gave a mCherry in test [1] of 84.4%. Also, the percent effect in test [2] was -6.69%.

Regarding `CC(C)(C)c1ccc(C(O)CCCN2CCC(C(O)(c3ccccc3)c3ccccc3)CC2)cc1` (centres undefined) [terfenadine], the mCherry in test [1] is 111% and 98.3%. For the same molecule, the percent effect in test [2] was 0.0353% and -1.11%.

As to `CCCCN1CCCC[C@H]1C(=O)Nc1c(C)cccc1C` [levobupivacaine], the mCherry in test [1] worked out at 96.7%. In addition, the percent effect in test [2] is -1.14%.

With `N=C(N)NC(=N)N1CCOCC1` [moroxydine], in test [1], the mCherry stood at 108%. The percent effect in test [2] is -0.972%.

In turn, `CCCCc1ccc2[nH]c(NC(=O)OC)nc2c1` [parbendazole] returned a mCherry in test [1] of 77.6%. In addition, the percent effect in test [2] was -6.37%.

For the molecule `NC[C@H]1CC[C@H](C(=O)O)CC1`, in test [1], the mCherry amounted to 89.3%. Further, the percent effect in test [2] was -1.22%.

As to `Cc1[nH]cnc1CN1CCc2c(c3ccccc3n2C)C1=O` [alosetron], the mCherry in test [1] was determined as 155%. The percent effect in test [2] was -14.2%.

Molecule `CCCCCNCC(N)=O` [milacemide] registered a mCherry in test [1] of 108%. Moreover, in test [2], the percent effect was -11.2%.

In test [1], `Cn1c(=O)c2c(ncn2CCCNCC(O)c2cc(O)cc(O)c2)n(C)c1=O` (centres undefined) [reproterol] showed a mCherry of 104%. In addition, the percent effect in test [2] is -8.41%.

For `COc1c(O[C@@H]2O[C@H](CO)[C@@H](O)[C@H](O)[C@H]2O)cc2c(c1OC)-c1ccc(SC)c(=O)cc1[C@@H](NC(C)=O)CC2` [thiocolchicoside], the mCherry in test [1] stood at 124%. Moreover, in test [2], the percent effect was -3.8%.

`Oc1ccc(OCc2ccccc2)cc1` [monobenzone] registered a mCherry in test [1] of 119%. Moreover, the percent effect in test [2] turned out to be 4.19%.

Turning to `CO[C@H]1C(=O)[C@]2(C)[C@@H](OC)C[C@H]3OC[C@@]3(OC(C)=O)[C@H]2[C@H](OC(=O)c2ccccc2)[C@]2(O)C[C@H](OC(=O)[C@H](O)[C@@H](NC(=O)OC(C)(C)C)c3ccccc3)C(C)=C1C2(C)C` [Jevtana], in test [1], the mCherry is 76.1%. Besides, the percent effect in test [2] is -16.1%.

In turn, `CCCOc1ccccc1-c1nc2[nH]nnc2c(=O)[nH]1` [zaprinast] yielded a mCherry in test [1] of 76.7%. In addition, the percent effect in test [2] is -10.9%.

With `COc1cc2ncnc(N3CCN(C(=O)OCC(C)(C)O)CC3)c2cc1OC` [hoquizil], the mCherry in test [1] is 53.8%. Also, the percent effect in test [2] is -9.58%.

As for `CNCC(O)c1ccc(O)c(O)c1` [L-(+)-Epinephrine tartrate], the mCherry in test [1] turned out to be 85.2%. In addition, the percent effect in test [2] was -4.12%.

As to `CC1CC(OC(=O)C(O)c2ccccc2)CC(C)(C)N1C` (centres undefined), in test [1], the mCherry came to 131%. For the same molecule, in test [2], the percent effect is -0.385%.

`Clc1ccc(CO/N=C(\Cn2ccnc2)c2ccc(Cl)cc2Cl)c(Cl)c1` yielded a mCherry in test [1] of 137%. Further, in test [2], the percent effect was -0.903%.

In test [1], `O=C1/C(=C/c2cccs2)CCC/C1=C\c1cccs1` [tenylidone] returned a mCherry of 107%. Further, the percent effect in test [2] is -5.67%.

The values above are taken from the supplement of paper PMC8256030.
